Data taken from patent publication US20210369618A1, “IBUPROFEN-CONTAINING ORAL PHARMACEUTICAL FORMULATION” (SSP CO., LTD., priority 2018, published 2021).

Legend:
[1] = Sensory evaluation of the unpleasant taste of ibuprofen (irritation and bitterness); sample equivalent to 200 mg ibuprofen held in the mouth for 3 minutes; design: key to unpleasant taste of ibuprofen (irritation and bitterness), sensory evaluation: AA: No unpleasant taste was detected.; An unpleasant taste was just about detected, but it was not so bothersome.; B: There was an unpleasant taste and it was very bothersome.; C: It was unacceptably unpleasant; settings: for unpleasant taste of ibuprofen (irritation and bitterness), sensory evaluation: equivalent to 200 mg ibuprofen, relative to reference example 1
Description: Immediately after the mixing, a sample equivalent to 200 mg ibuprofen was placed in the mouth, held in the mouth for 3 minutes without swallowing, and subjected to sensory evaluation, over time, of the unpleasant taste of ibuprofen (irritation and bitterness). For the sample used in reference example 1 (ibuprofen passed completely through a 30 mesh) shown in Table 1, sensory evaluation was performed in accordance with the operations described above using the evaluation criteria below, and the evaluations of example 1 and comparative example 1 were subjected to relative evaluation based on the evaluation result for the reference example 1 sample.
(§1) Said samples for examples 2-7 and comparative examples 2-4 were subjected to sensory evaluation of the unpleasant taste of ibuprofen (irritation and bitterness) in accordance with the operations and evaluation criteria used in test example 1 (relative evaluation based on the evaluation result for the reference example 1 sample).
as §1, with “Granules equivalent to 200 mg ibuprofen” for “Said samples for examples 2-7 and comparative examples 2-4”
Sensory evaluation the same as in test example 3 was conducted with the exception that the composition of the granules was modified to the compositions shown in Table 4 and that the granules were evaluated only after having been held in the mouth for 30 seconds and after having been held in the mouth for 1 minute.

[2] = Sensory evaluation of the unpleasant taste of ibuprofen; amount equivalent to 400 mg ibuprofen held in the mouth; design: key: AA: No unpleasant taste was detected.; An unpleasant taste was just about detected, but it was not so bothersome.; B: There was an unpleasant taste and it was very bothersome.; C: It was unacceptably unpleasant; settings: relative to reference example 4
Description: Granules of example 17 were placed in the mouth, held in the mouth for 3 minutes without swallowing, and subjected to sensory evaluation, over time, of the unpleasant taste of ibuprofen (irritation and bitterness). For the reference example 4 sample (ibuprofen passed completely through a 30 mesh) shown in Table 7, sensory evaluation of an amount equivalent to 400 mg ibuprofen was performed in accordance with the operations as described above, using the following evaluation criteria, and the evaluations for example 17 were subjected to relative evaluation based on the evaluation result for the reference example 4 sample.

| SMILES | unpleasant taste after drying treatment compared with the substance not subjected to the drying treatment ([1]; drying treatment 65° C. for 15 hours, Tables 1 and 2 compared) | unpleasant taste of ibuprofen (irritation and bitterness), sensory evaluation ([1]; held in the mouth 10 seconds) | unpleasant taste of ibuprofen (irritation and bitterness), sensory evaluation ([1]; held in the mouth 20 seconds) | unpleasant taste of ibuprofen (irritation and bitterness), sensory evaluation ([1]; held in the mouth 30 seconds) | unpleasant taste of ibuprofen (irritation and bitterness), sensory evaluation ([1]; held in the mouth 45 seconds) | unpleasant taste of ibuprofen (irritation and bitterness), sensory evaluation ([1]; held in the mouth 1 minute) | unpleasant taste of ibuprofen (irritation and bitterness), sensory evaluation ([1]; held in the mouth 2 minutes) | unpleasant taste of ibuprofen (irritation and bitterness), sensory evaluation ([1]; held in the mouth 3 minutes) | unpleasant taste, in words ([1]; after having been held in the mouth for 30 seconds) | unpleasant taste of ibuprofen (irritation and bitterness), sensory evaluation ([2]; held in the mouth 10 seconds) | unpleasant taste of ibuprofen (irritation and bitterness), sensory evaluation ([2]; held in the mouth 20 seconds) | unpleasant taste of ibuprofen (irritation and bitterness), sensory evaluation ([2]; held in the mouth 30 seconds) | unpleasant taste of ibuprofen (irritation and bitterness), sensory evaluation ([2]; held in the mouth 45 seconds) | unpleasant taste of ibuprofen (irritation and bitterness), sensory evaluation ([2]; held in the mouth 1 minute) | unpleasant taste of ibuprofen (irritation and bitterness), sensory evaluation ([2]; held in the mouth 2 minutes) | unpleasant taste of ibuprofen (irritation and bitterness), sensory evaluation ([2]; held in the mouth 3 minutes) |
| --- | --- | --- | --- | --- | --- | --- | --- | --- | --- | --- | --- | --- | --- | --- | --- | --- |
| CC(C)Cc1ccc(C(C)C(=O)O)cc1 (centres unmarked) [compound 2, 2-(4-isobutylphenyl)propionic acid] | the unpleasant taste was no lower | AA | A | C | C | C | C | C | – | – | – | – | – | – | – | – |
| CC(C)Cc1ccc(C(C)C(=O)O)cc1 (centres unmarked) [compound 1, 2-(4-isobutylphenyl)propionic acid] | – | AA | A | B | C | C | C | C | exhibited a distinctly unpleasant taste | – | – | – | – | – | – | – |
| CC(C)Cc1ccc(C(C)C(=O)O)cc1 (centres unmarked) [compound 4, 2-(4-isobutylphenyl)propionic acid] | – | – | – | – | – | – | – | – | – | AA | A | C | C | C | C | C |
